Reference: patent US8729047B2, “Compositions for inhibiting redox-sensitive GTPases” (Board of Regents, The University of Texas System, priority 2010, dated 2014)

System: Ras
Assay: Co-IP ESI-MS of Ras-bound nucleotide / adduct in T24 or HT1080 cells
Type: cell-based, human
Conditions: 6-TG, FIG. 9

Nc1nc2nc[nH]c2c(=S)[nH]1 [6-TG, 6-thioguanine]
time from initial treatment until detectable amount of 6-TGNP bound to Ras: 8 to 10 days
